Source: PubChem BioAssay AID248 (DTP/NCI, 2004)
The list shows only some results of the screen, not a fair sample: it is rich in T/C values a quarter to a half above the control, in often repeated tests (any T/C) and in doses without a T/C. Further doses and runs are listed elsewhere. T/C is the treated group as % of the vehicle group. Some doses have a count of surviving animals in place of a T/C: the source files T/C as zero there, which appears to mark a toxic dose or a test without result, not a measured value. Some doses without a T/C left all or most animals alive at the check, yet need not have been tolerated: the source hardly ever lists a survival T/C far under the control, and the zero likely stands for such cases as well. Counts of survivors are from the toxicity check (mostly the fifth day) where no day follows; animals may have died later. Schedules are NCI's codes, read here as Q, the interval in days (D) or hours (H), X, the number of doses. For survival time, the PubChem record calls one and a half times the control and up active, and a quarter to a half above the control has no call in these data; cut-offs in other NCI protocols can differ. Some T/C values carry the count of animals alive at the toxicity check (mostly the fifth day); without a count, all were alive then. Some entries were tested several times; the results are listed from low to high. Signs of the kind (2×) say how often a value occurs here.

Test system: L1210 leukemia ip in BDF1 mice, survival T/C
Assay: NCI In Vivo Anticancer Drug Screen. Data for tumor model L1210 Leukemia (intraperitoneal) in B6D2F1 (BDF1) mice
Settings: T/C endpoint: median survival time, higher T/C = longer survival
[1] = dose: 128.0 mg/kg/injection, schedule: Q01DX009 (oral), vehicle: saline with Tween-80

For `CC(CN1CC(=O)NC(=O)C1)N1CC(=O)NC(=O)C1` (configuration not stated), the T/C (dose: 64.0 mg/kg/injection, schedule: Q04DX003 (ip), vehicle: saline with Tween-80) was 129 % of control, the T/C (dose: 64.0 mg/kg/injection, schedule: Q04DX003 (sc), vehicle: saline with Tween-80) was 129 % of control and the survivor count (dose: 75.0 mg/kg/injection, schedule: Q03HX024 (ip), vehicle: Klucel (hydroxypropylcellulose) (HPC)) was 8 of 8. For the same compound, the T/C (dose: 100.0 mg/kg/injection, schedule: Q01DX001 (ip), vehicle: Klucel (hydroxypropylcellulose) (HPC), evaluated on day 5) was 110 (2×), 113, 116, 118, 122 % of control, the T/C (dose: 100.0 mg/kg/injection, schedule: Q01DX001 (ip), vehicle: Klucel (hydroxypropylcellulose) (HPC), evaluated on day 30) was 111 (2×) and 125 % of control and the T/C (dose: 100.0 mg/kg/injection, schedule: Q01DX001 (ip), vehicle: Klucel (hydroxypropylcellulose) (HPC), evaluated on day 60) was 111 % of control. For the same compound, the T/C (dose: 100.0 mg/kg/injection, schedule: Q01DX001 (ip), vehicle: Klucel (hydroxypropylcellulose) (HPC), evaluated on day 75) was 122 % of control, the T/C (dose: 100.0 mg/kg/injection, schedule: Q01DX001 (ip), vehicle: other) was 147 % of control and the T/C (dose: 100.0 mg/kg/injection, schedule: Q01DX001 (ip), vehicle: steroid suspending solution) was 138 % of control. For the same compound, the T/C (dose: 100.0 mg/kg/injection, schedule: Q04DX003 (ip), vehicle: Klucel (hydroxypropylcellulose) (HPC), evaluated on day 5) was 102, 111, 112, 114, 122, 125, 139, 141, 145, 149, 182 % of control, the T/C (dose: 100.0 mg/kg/injection, schedule: Q04DX003 (ip), vehicle: Klucel (hydroxypropylcellulose) (HPC), evaluated on day 7) was 99 and 117 % of control and the T/C (dose: 100.0 mg/kg/injection, schedule: Q04DX003 (ip), vehicle: Klucel (hydroxypropylcellulose) (HPC), evaluated on day 30) was 100 [7 of 8 alive] and 139 % of control. For the same compound, the T/C (dose: 100.0 mg/kg/injection, schedule: Q04DX003 (ip), vehicle: Klucel (hydroxypropylcellulose) (HPC), evaluated on day 32) was 120 % of control, the T/C (dose: 100.0 mg/kg/injection, schedule: Q04DX003 (ip), vehicle: Klucel (hydroxypropylcellulose) (HPC), evaluated on day 46) was 105 % of control and the T/C (dose: 100.0 mg/kg/injection, schedule: Q04DX003 (ip), vehicle: Klucel (hydroxypropylcellulose) (HPC), evaluated on day 50) was 112 % of control. For the same compound, the T/C (dose: 100.0 mg/kg/injection, schedule: Q04DX003 (ip), vehicle: Klucel (hydroxypropylcellulose) (HPC), evaluated on day 54) was 144 % of control, the T/C (dose: 100.0 mg/kg/injection, schedule: Q04DX003 (ip), vehicle: Klucel (hydroxypropylcellulose) (HPC), evaluated on day 60) was 110, 111, 125, 133, 183 % of control [7 of 8 alive] and the T/C (dose: 100.0 mg/kg/injection, schedule: Q04DX003 (ip), vehicle: Klucel (hydroxypropylcellulose) (HPC), evaluated on day 75) was 144 % of control. For the same compound, the T/C (dose: 108.0 mg/kg/injection, schedule: Q04DX003 (ip), vehicle: Klucel (hydroxypropylcellulose) (HPC), evaluated on day 5) was 114, 115, 131 % of control, the T/C (dose: 108.0 mg/kg/injection, schedule: Q04DX003 (ip), vehicle: Klucel (hydroxypropylcellulose) (HPC), evaluated on day 7) was 114 % of control and the T/C (dose: 108.0 mg/kg/injection, schedule: Q04DX003 (ip), vehicle: Klucel (hydroxypropylcellulose) (HPC), evaluated on day 24) was 116 % of control. For the same compound, the T/C (dose: 108.0 mg/kg/injection, schedule: Q04DX003 (ip), vehicle: Klucel (hydroxypropylcellulose) (HPC), evaluated on day 27) was 133 % of control, the T/C (dose: 108.0 mg/kg/injection, schedule: Q04DX003 (ip), vehicle: Klucel (hydroxypropylcellulose) (HPC), evaluated on day 30) was 110 % of control and the T/C (dose: 108.0 mg/kg/injection, schedule: Q04DX003 (ip), vehicle: Klucel (hydroxypropylcellulose) (HPC), evaluated on day 33) was 122 % of control. For the same compound, the T/C (dose: 108.0 mg/kg/injection, schedule: Q04DX003 (ip), vehicle: Klucel (hydroxypropylcellulose) (HPC), evaluated on day 34) was 131 % of control, the T/C (dose: 108.0 mg/kg/injection, schedule: Q04DX003 (ip), vehicle: Klucel (hydroxypropylcellulose) (HPC), evaluated on day 46) was 111 % of control and the T/C [1] was 87 and 92 % of control. The survivor count [1] was 10 of 10, the survivor count (dose: 128.0 mg/kg/injection, schedule: Q03HX008 (ip), vehicle: saline with Tween-80) was 7 of 10 and the survivor count (dose: 128.0 mg/kg/injection, schedule: Q03HX016 (ip), vehicle: saline with Tween-80) was 8 of 10. The survivor count (dose: 128.0 mg/kg/injection, schedule: Q03HX024 (ip), vehicle: saline with Tween-80) was 9 of 10, the T/C (dose: 128.0 mg/kg/injection, schedule: Q04DX003 (sc), vehicle: saline with Tween-80) was 144 % of control and the T/C (dose: 164.0 mg/kg/injection, schedule: Q04DX003 (ip), vehicle: Klucel (hydroxypropylcellulose) (HPC), evaluated on day 5) was 142 % of control. For the same compound, the T/C (dose: 164.0 mg/kg/injection, schedule: Q04DX003 (ip), vehicle: Klucel (hydroxypropylcellulose) (HPC), evaluated on day 7) was 133 % of control, the T/C (dose: 164.0 mg/kg/injection, schedule: Q04DX003 (ip), vehicle: Klucel (hydroxypropylcellulose) (HPC), evaluated on day 35) was 133 % of control and the T/C (dose: 164.0 mg/kg/injection, schedule: Q04DX003 (ip), vehicle: Klucel (hydroxypropylcellulose) (HPC), evaluated on day 60) was 144 % of control. For the same compound, the T/C (dose: 180.0 mg/kg/injection, schedule: Q04DX003 (ip), vehicle: Klucel (hydroxypropylcellulose) (HPC), evaluated on day 5) was 124, 148, 159, 162 % of control, the T/C (dose: 180.0 mg/kg/injection, schedule: Q04DX003 (ip), vehicle: Klucel (hydroxypropylcellulose) (HPC), evaluated on day 7) was 117 % of control and the T/C (dose: 180.0 mg/kg/injection, schedule: Q04DX003 (ip), vehicle: Klucel (hydroxypropylcellulose) (HPC), evaluated on day 24) was 116 % of control. The T/C (dose: 180.0 mg/kg/injection, schedule: Q04DX003 (ip), vehicle: Klucel (hydroxypropylcellulose) (HPC), evaluated on day 27) was 155 % of control, the T/C (dose: 180.0 mg/kg/injection, schedule: Q04DX003 (ip), vehicle: Klucel (hydroxypropylcellulose) (HPC), evaluated on day 30) was 150 % of control and the T/C (dose: 180.0 mg/kg/injection, schedule: Q04DX003 (ip), vehicle: Klucel (hydroxypropylcellulose) (HPC), evaluated on day 33) was 150 % of control. For the same compound, the T/C (dose: 180.0 mg/kg/injection, schedule: Q04DX003 (ip), vehicle: Klucel (hydroxypropylcellulose) (HPC), evaluated on day 34) was 162 % of control, the T/C (dose: 180.0 mg/kg/injection, schedule: Q04DX003 (ip), vehicle: Klucel (hydroxypropylcellulose) (HPC), evaluated on day 46) was 122 % of control and the T/C (dose: 180.0 mg/kg/injection, schedule: Q04DX003 (ip), vehicle: Klucel (hydroxypropylcellulose) (HPC), evaluated on day 60) was 147 % of control. The T/C (dose: 200.0 mg/kg/injection, schedule: Q01DX001 (ip), vehicle: Klucel (hydroxypropylcellulose) (HPC), evaluated on day 5) was 128 (2×), 132, 141 (2×), 146 % of control, the T/C (dose: 200.0 mg/kg/injection, schedule: Q01DX001 (ip), vehicle: Klucel (hydroxypropylcellulose) (HPC), evaluated on day 30) was 127 (2×) and 150 % of control and the T/C (dose: 200.0 mg/kg/injection, schedule: Q01DX001 (ip), vehicle: Klucel (hydroxypropylcellulose) (HPC), evaluated on day 60) was 144 % of control. The T/C (dose: 200.0 mg/kg/injection, schedule: Q01DX001 (ip), vehicle: Klucel (hydroxypropylcellulose) (HPC), evaluated on day 75) was 144 % of control, the T/C (dose: 200.0 mg/kg/injection, schedule: Q01DX001 (ip), vehicle: other) was 133 % of control and the T/C (dose: 200.0 mg/kg/injection, schedule: Q01DX001 (ip), vehicle: steroid suspending solution) was 133 % of control. For the same compound, the T/C (dose: 200.0 mg/kg/injection, schedule: Q04DX003 (ip), vehicle: Klucel (hydroxypropylcellulose) (HPC), evaluated on day 5) was 117, 125, 141, 159, 164, 181, 184, 206, 207, 220, 221 % of control, the T/C (dose: 200.0 mg/kg/injection, schedule: Q04DX003 (ip), vehicle: Klucel (hydroxypropylcellulose) (HPC), evaluated on day 7) was 117 and 171 % of control and the T/C (dose: 200.0 mg/kg/injection, schedule: Q04DX003 (ip), vehicle: Klucel (hydroxypropylcellulose) (HPC), evaluated on day 30) was 117 and 159 % of control. For the same compound, the T/C (dose: 200.0 mg/kg/injection, schedule: Q04DX003 (ip), vehicle: Klucel (hydroxypropylcellulose) (HPC), evaluated on day 32) was 170 % of control, the T/C (dose: 200.0 mg/kg/injection, schedule: Q04DX003 (ip), vehicle: Klucel (hydroxypropylcellulose) (HPC), evaluated on day 46) was 130 % of control and the T/C (dose: 200.0 mg/kg/injection, schedule: Q04DX003 (ip), vehicle: Klucel (hydroxypropylcellulose) (HPC), evaluated on day 50) was 220 % of control. For the same compound, the T/C (dose: 200.0 mg/kg/injection, schedule: Q04DX003 (ip), vehicle: Klucel (hydroxypropylcellulose) (HPC), evaluated on day 54) was 144 % of control, the T/C (dose: 200.0 mg/kg/injection, schedule: Q04DX003 (ip), vehicle: Klucel (hydroxypropylcellulose) (HPC), evaluated on day 60) was 116, 160, 181, 205, 211 % of control and the T/C (dose: 200.0 mg/kg/injection, schedule: Q04DX003 (ip), vehicle: Klucel (hydroxypropylcellulose) (HPC), evaluated on day 75) was 227 % of control. For the same compound, the T/C (dose: 205.0 mg/kg/injection, schedule: Q04DX003 (ip), vehicle: Klucel (hydroxypropylcellulose) (HPC), evaluated on day 5) was 156 % of control and the T/C (dose: 205.0 mg/kg/injection, schedule: Q04DX003 (ip), vehicle: Klucel (hydroxypropylcellulose) (HPC), evaluated on day 7) was 139 % of control.
